Laboratory results published in US20250327071.

How the values were obtained:
[1] = biological target: EZH2 (UniProt F7F5Z0); test: pull-down; conditions: protein in cells, protein details: endogenous, Schwann cells
[2] = biological target: WDR5 (UniProt Q498M4); test: pull-down; conditions: protein in cells, protein details: Schwann cells

Question: Which results are given for “GUCCAAGCUUCCAUCUGGUCGCCCCCACGCAGCCGACCGCCCAGACACGCCGGGAAGGGCGCCCGCUUUGUGCAGCAGCUGGAGGGGAGGGAGCGGGAGAGCGCGGGCAGGGGGCGUGGGGGUGGGGGUGCCUCUGGCCGAGGAUCUCUCUGGAAGCUCCAGCAGCUCUUCUGCUCCAUUCUCUCUACCCUAACCCCUACCCUCAAGUUACCUAAAAUACUUAAACAAACAAACAGCCCAGACCUGUUCCGUUUUCACUCCUGUAUAAAUAGCACAGACUUUCCAAAAAAGCAAGACCGCAUUUACUCUUAUCACCAGACACUACUUUCCACCGUGUAAUUCAGAAAAAGGCAGUCAGCUUCCGUGAGUGCGGGUAAUUUUUUUUUUCUUCUCUCUCUCUCUCUUUUUUUCUCUGUCUUUUUUUUUUUUUCUUUUGCUUGCGGUUUUGAGCUGCCAAGAAAGUGAAGGAGGGGUUUGACUGUAGUGUCUCGGCAGCGCUCGGUUUCUUUCCGAAGUUUAAUUUUCCGGAAUGGCUCCCAAACAAGGGCUGGGGAGGCGGAGCCGCCACUACCGGAUCUUCUCCUUUUUUGGAAAGUCUCGGAGAACCGGAAUUCCUCCCCGCCCCAAGAGACAGAGCUACCAUCGCUGCCCGUGGGUUCACCCACGGCAGCCGCGUCAGGGUCGGUGAUCGCGCCUUCCCCGCGCUGAACUCUGCAGUCCGGAGUCCCCGUUGCAGGCAGGGGCCGAGAGCUCCAGACCCGGGCGGUUGUCCACCGGCAGCGAAUCGUUCCGGGCGAGCUCGGCGGAGCCCGCGCAGCCAAGCCCGUAUGCAAAUUGGCCAUGUGACCGGCAAAAGCUACCAGGCCCAGCCCUGUUCCUCAGUCCAUAUAUGGGCAGCGACGUCACGGGUUAUUGAAGACCUGCCCAUAAAUACUCCGAGCCUAACACUUUCCGUCUGAGAGAGCA [EGR2-AS-RNA full length]”?
Answer: binding result ([1]; RNA immunoprecipitation with qPCR after lentiviral overexpression in Schwann cells, p=0.026): binds; binding result ([2]; RNA immunoprecipitation with qPCR after lentiviral overexpression in Schwann cells, p=0.040): binds

Question: Does “GUCCAAGCUUCCAUCUGGUCGCCCCCACGCAGCCGACCGCCCAGACACGCCGGGAAGGGCGCCCGCUUUGUGCAGCAGCUGGAGGGGAGGGAGCGGGAGAGCGCGGGCAGGGGGCGUGGGGGUGGGGGUGCCUCUGGCCGAGGAUCUCUCUGGAAGCUCCAGCAGCUCUUCUGCUCCAUUCUCUCUACCCUAACCCCUACCCUCAAGUUACCUAAAAUACUUAAACAAACAAACAGCCCAGACCUGUUCCGUUUUCACUCCUGUAUAAAUAGCACAGACUUUCCAAAAAAGCAAGACCGCAUUUACUCUUAUCACCAGACACUACUUUCCACCGUGUAAUUCAGAAAAAGGCAGUCAGCUUCCGUGAGUGCGGGUAAUUUUUUUUUUCUUCUCUCUCUCUCUCUUUUUUUCUCUGUCUUUUUUUUUUUUUCUUUUGCUUGCGGUUUUGAGCUGCCAAGAAAGUGAAGGAGGGGUUUGACUGUA [AS1 fragment (-966 to -483)]” bind ([1]; RIP after overexpression of AS1 in Schwann cells, variant of EGR2-AS-RNA full length)?
Answer: Result: binds

Question: Does “GUCCAAGCUUCCAUCUGGUCGCCCCCACGCAGCCGACCGCCCAGACACGCCGGGAAGGGCGCCCGCUUUGUGCAGCAGCUGGAGGGGAGGGAGCGGGAGAGCGCGGGCAGGGGGCGUGGGGGUGGGGGUGCCUCUGGCCGAGGAUCUCUCUGGAAGCUCCAGCAGCUCUUCUGCUCCAUUCUCUCUACCCUAACCCCUACCCUCAAGUUACCUAAAAUACUUAAACAAACAAACAGCCCAGACCUGUUCCGUUUUCACUCCUGUAUAAAUAGCACAGACUUUCCAAAAAAGCAAGACCGCAUUUACUCUUAUCACCAGACACUACUUUCCACCGUGUAAUUCAGAAAAAGGCAGUCAGCUUCCGUGAGUGCGGGUAAUUUUUUUUUUCUUCUCUCUCUCUCUCUUUUUUUCUCUGUCUUUUUUUUUUUUUCUUUUGCUUGCGGUUUUGAGCUGCCAAGAAAGUGAAGGAGGGGUUUGACUGUA [AS1 fragment (-966 to -483)]” bind ([2]; RIP, WDR5 binding reported for AS2 only, region-specific, non-binding implied, variant of EGR2-AS-RNA full length)?
Answer: Result: no binding

Question: Does “UGUCUCGGCAGCGCUCGGUUUCUUUCCGAAGUUUAAUUUUCCGGAAUGGCUCCCAAACAAGGGCUGGGGAGGCGGAGCCGCCACUACCGGAUCUUCUCCUUUUUUGGAAAGUCUCGGAGAACCGGAAUUCCUCCCCGCCCCAAGAGACAGAGCUACCAUCGCUGCCCGUGGGUUCACCCACGGCAGCCGCGUCAGGGUCGGUGAUCGCGCCUUCCCCGCGCUGAACUCUGCAGUCCGGAGUCCCCGUUGCAGGCAGGGGCCGAGAGCUCCAGACCCGGGCGGUUGUCCACCGGCAGCGAAUCGUUCCGGGCGAGCUCGGCGGAGCCCGCGCAGCCAAGCCCGUAUGCAAAUUGGCCAUGUGACCGGCAAAAGCUACCAGGCCCAGCCCUGUUCCUCAGUCCAUAUAUGGGCAGCGACGUCACGGGUUAUUGAAGACCUGCCCAUAAAUACUCCGAGCCUAACACUUUCCGUCUGAGAGAGCA [AS2 fragment (-482 to -1)]” bind ([1]; RIP, EZH2 binding reported for AS1 only, region-specific, non-binding implied, variant of EGR2-AS-RNA full length)?
Answer: Result: no binding

Question: Does “UGUCUCGGCAGCGCUCGGUUUCUUUCCGAAGUUUAAUUUUCCGGAAUGGCUCCCAAACAAGGGCUGGGGAGGCGGAGCCGCCACUACCGGAUCUUCUCCUUUUUUGGAAAGUCUCGGAGAACCGGAAUUCCUCCCCGCCCCAAGAGACAGAGCUACCAUCGCUGCCCGUGGGUUCACCCACGGCAGCCGCGUCAGGGUCGGUGAUCGCGCCUUCCCCGCGCUGAACUCUGCAGUCCGGAGUCCCCGUUGCAGGCAGGGGCCGAGAGCUCCAGACCCGGGCGGUUGUCCACCGGCAGCGAAUCGUUCCGGGCGAGCUCGGCGGAGCCCGCGCAGCCAAGCCCGUAUGCAAAUUGGCCAUGUGACCGGCAAAAGCUACCAGGCCCAGCCCUGUUCCUCAGUCCAUAUAUGGGCAGCGACGUCACGGGUUAUUGAAGACCUGCCCAUAAAUACUCCGAGCCUAACACUUUCCGUCUGAGAGAGCA [AS2 fragment (-482 to -1)]” bind ([2]; RIP after overexpression of AS2 in Schwann cells, variant of EGR2-AS-RNA full length)?
Answer: Result: binds

The exact form of at least one protein or probe is not confirmed. At least one result comes from cells or an extract, where the contact may be indirect. Negatives hold for the conditions tested.
